Laboratory results taken from PubChem BioAssay AID540276 (National Center for Advancing Translational Sciences (NCATS), 2011).
“And” between values parts separate entries of the source, which are not always exact repeats. Identical values can stand only once. Hit rate of the full screen: of about 300,000 compounds, about 5,400 (1.8%) were called active. Inconclusive results, whose numbers are uncertain, are shown with a selection of clear calls. The call rests on the fitted dose curve; tested in HEK293 cells. Potencies of inconclusive entries are doubtful fits and often do not repeat. A structure can be active in one record and inactive in another.

assay: qHTS for inhibitors of binding or entry into cells for Marburg Virus; conditions: Marburg virus pseudotyped entry inhibition, cell reporter; activity change, negative = inhibition: at 37.8 µM (top of the series) unless noted
On the % scale 0 is the no-effect control and ±100 the full control effect; potency means the concentration at half of the fitted maximal effect.

SMILES | Potency | activity change, negative = inhibition
Cc1ccc(O)c(N=NC2=C(O)CC(C)(C)CC2=O)c1 | active: 10 µM | –
CCOC(=O)c1ccc(NC(=S)N2CCN(Cc3ccccc3)CC2)cc1 | inconclusive: 0.0891 µM [activator, full curve, poor fit] | –
O=C(CSc1ccccc1)N1CCCC(N2CCN(c3ccc(F)cc3)CC2)C1 (stereo unspecified) | inconclusive: 14.1 µM [inhibitor, single point] | –
COc1cc(NCCCCCCCN)c2ncccc2c1 | – | inactive: 16.1%
COc1ccc(CCC(C)Nc2ccc(F)c(F)c2)cc1 (stereo unspecified) | inconclusive: 0.316 µM [activator, partial curve, poor fit] | –
Cc1ccc(C)c(N(CC(=O)NC2CCCC2)C(=O)c2cc3cc4cc(C)ccc4nc3s2)c1 | – | inactive: -20.1%
Cc1occc1-c1nnc(SCC(=O)c2ccc(Cl)cc2)n1CC1CCCO1 (stereo unspecified) | – | inactive: -8.43%
NC(=O)c1oc2ccccc2c1NC(=O)c1ccc([N+](=O)[O-])o1 | inconclusive: 5.01 µM [inhibitor, full curve, poor fit] | –
OC(CNCC(c1ccco1)N1CCCCC1)c1ccccc1 (stereo unspecified) | inconclusive: 32.6 µM [inhibitor, single point] | –
CN(C)CCn1c(C(=O)Nc2ccccc2)cc2ccccc21 | inconclusive: 14.1 µM [inhibitor, single point] | –
O=c1cc(CSc2ccc(Cl)cc2)nc(N2CCOCC2)[nH]1 | inconclusive: 0.651 µM [inhibitor, partial curve, poor fit] | –
COc1ccc(-n2nc([N+](=O)[O-])c(=NCc3ccc4c(c3)OCO4)n2O)cc1 | inconclusive: 3.16 µM [activator, single point] | –
COC(=O)c1cc2c(cc1[N+](=O)[O-])OCO2 | – | inactive: -4.38%
Cn1cc(CCCC(=O)NCc2ccccc2)c2ccccc21 | inconclusive: 12.6 µM [inhibitor, partial curve, poor fit] | –
COc1ccc(CNC(=O)C(c2ccco2)N(C(=O)c2snc(C(N)=O)c2N)c2ccccc2OC)cc1 (stereo unspecified) | inconclusive: 11.2 µM [inhibitor, partial curve, poor fit] | –
CN1/C(=C\C(=O)CSc2ncn[nH]2)C(C)(C)c2ccccc21 | inconclusive: 0.562 µM [inhibitor, full curve, poor fit] | –
Cc1ccc(NC(=O)CSc2cc(=O)n(C)c3ccc(Cl)cc23)c(Br)c1 | – | inactive: -5.79% [at 46.1 µM]
CCc1ccc(CNC(=O)c2ccc3nc(SCc4ccc(F)cc4)n(C)c3c2)cc1 | inconclusive: 10 µM [inhibitor, partial curve, poor fit] | –
Clc1ccc(OCCCn2ccnc2)c(Br)c1 | – | inactive: 7.15%
C=CCOC(=O)C(C(=O)Cc1ccccc1)c1ccccc1 (stereo unspecified) | inconclusive: 6.31 µM [inhibitor, single point] | –
CCOC(=O)c1nc(SC)n(C)c1C(=O)OCC | – | inactive: 1.55% [at 46.1 µM]
CCCC(=O)NCCc1c2n(c3ccc(OC)cc13)Cc1ccccc1-2 | inconclusive: 0.794 µM [inhibitor, full curve, poor fit] | –
COc1ccc2[nH]c(C(=O)N/N=C/c3ccc(OC)c(O)c3)cc2c1 | inconclusive: 10 µM [inhibitor, partial curve, poor fit] | –
CC1=C(C(=O)OC(C)C)C(c2ccc(C)o2)NC(=O)N1 (stereo unspecified) | – | inactive: 3.7%

SMILES | Potency | activity change, negative = inhibition
Cc1cccc(Nc2nnc(SCC(=O)Nc3ncc(C(F)(F)F)cc3Cl)s2)c1C | inconclusive: 0.158 µM [inhibitor, partial curve, poor fit] | –
CCSc1nnc(NC(=O)c2cccnc2Cl)s1 | inconclusive: 29.1 µM [activator, single point] | –
CSC(=S)N/N=C/c1ccccc1 | – | inactive: 13.1% [at 46.1 µM]
CCCCCCOc1ccc(N2C(=O)CC(SCCN)C2=O)cc1 (stereo unspecified) | – | inactive: 18.1% [at 46.1 µM]
C#CC(CC)(CC)NC(=O)NC1CCCCC1 | – | inactive: 1.57%
O=S(=O)(c1cccs1)N1CCN(c2cccc(Cl)c2)CC1 | – | inactive: -17.1%
COc1cc(NC(=O)C(C)C)ccc1NC(=O)c1ccco1 | – | inactive: 26.1%
CC(=O)c1ccc(N2CCN(C(=O)Cc3ccccc3)CC2)c(F)c1 | inconclusive: 3.16 µM [inhibitor, single point] | –
COc1ccccc1CNC(=S)Nc1ccc2nc(N3CCN(C)CC3)cc(C)c2c1 | inconclusive: 35.5 µM [inhibitor, single point] | –
N#Cc1cc2c(nc1SCC1COc3ccccc3O1)CCC2 (stereo unspecified) | inconclusive: 6.31 µM [activator, single point] | –
CCn1c(-c2csc3ccccc23)n[nH]c1=S | inconclusive: 0.316 µM [inhibitor, partial curve, poor fit] | –
Cn1c(N/N=C/c2cc3ccccc3nc2Cl)nc2ccccc21 | inconclusive: 2.82 µM [inhibitor, full curve, poor fit] | –
O=c1[nH]c(COc2ccc(Cl)cc2Br)nc2ccccc12 | inconclusive: 35.5 µM [inhibitor, single point] | –
CCOC(=O)C1CCN(CC(=O)Nc2cc(S(=O)(=O)N3CCCCC3)ccc2Cl)CC1 | inconclusive: 0.708 µM [inhibitor, partial curve, poor fit] | –
COc1ccc(Cl)cc1NC(=O)c1cc(-c2ccccc2O)n[nH]1 | inconclusive: 7.31 µM [inhibitor, full curve, poor fit] | –
COc1cccc(NC(=O)COC(=O)CCS(=O)(=O)c2ccc(C)cc2)c1 | inconclusive: 31.6 µM [inhibitor, single point] | –
COc1ccc(CNc2ncccn2)cc1OC | – | inactive: 2.87% [at 46.1 µM]
O=C1/C(=C/c2ccco2)Cc2ccccc21 | inconclusive: 29.1 µM [activator, single point] | –
Cc1ccc(C)c(N2CCN(C(=O)C3CCCCN3S(=O)(=O)c3ccc(F)cc3)CC2)c1 (stereo unspecified) | inactive and active: 10 µM | –
CCCCOc1ccc(S(=O)(=O)Nc2cc(OC)ccc2OC)cc1 | inconclusive: 20.6 µM [inhibitor, partial curve, poor fit] | –
Cn1c(C(=O)NCc2cccs2)cc2oc3ccccc3c21 | active: 0.447 µM | –
COc1ccc(C2CC(c3ccccc3OC(C)=O)=NN2C(=O)/C=C/c2ccccc2)cc1OC (stereo unspecified) | inconclusive: 39.8 µM [inhibitor, partial curve, poor fit] | –
O=C(CN1CCN(CC(=O)Nc2ccc3c(c2)OC2(CCCCC2)O3)CC1)Nc1cccc(F)c1 | inconclusive: 14.1 µM [inhibitor, partial curve, poor fit] | –
CCOc1ccc(/C=C2\SC(=S)N(CCC(=O)N(CCO)c3ccccc3)C2=O)cc1 | inconclusive: 22.4 µM [inhibitor, single point] | –

SMILES | Potency | activity change, negative = inhibition
Cn1nc(C(C)(C)C)cc1C(=O)NN1CCOCC1 | – | inactive: 26.1% [at 46.1 µM]
O=C(CSc1ncnc2ccccc12)Nc1ccc2c(c1)OCCO2 | – | inactive: -23.5% [at 46.1 µM]
CCOC(=O)c1ccc(N2C(=O)c3n[nH]c(C)c3C2c2cccnc2)cc1 (stereo unspecified) | – | inactive: -8.27%
CN(CC(=O)Nc1ncn[nH]1)S(=O)(=O)c1cc(Cl)ccc1Cl | – | inactive: -12.6%
O=C(CSc1n[nH]c(Cc2ccccc2)n1)Nc1ccccc1Br | inconclusive: 2.24 µM [inhibitor, partial curve, poor fit] | –
COc1ccccc1NC(=O)N1c2ccccc2Sc2ccccc21 | inconclusive: 35.5 µM [inhibitor, single point] | –
CCCCCCCC(=O)NC(Nc1ccccc1OC)C(Cl)(Cl)Cl (stereo unspecified) | inconclusive: 9.2 µM [inhibitor, partial curve] | –
O=C(O)c1ccc2c(c1)c1c3n2CCNC3CCC1 (stereo unspecified) | inconclusive: 1.26 µM [inhibitor, single point] | –
COc1cc(C(=O)Nc2cccc(-c3nc4cc(C)ccc4o3)c2C)cc(OC)c1OC | – | inactive: -8.99%
COc1ccc(CCN2CC(C(=O)O)CC2=O)cc1 (stereo unspecified) | inconclusive: 2.31 µM [inhibitor, partial curve, poor fit] | –
Cc1cnc(C(=O)OC(C)C(=O)NCc2ccccc2)cn1 (stereo unspecified) | – | inactive: -0.292%
Cc1ccc(C(=O)N(Cc2sccc2C)C2CCS(=O)(=O)C2)cc1 (stereo unspecified) | inactive | –
COc1ccc2oc(C(=O)Nc3ccc(C)cn3)c(C)c2c1 | inconclusive: 0.891 µM [activator, full curve, poor fit] | –
COCCCNC(=O)C(=O)N/N=C/c1ccc(OCC(=O)Nc2cccc(Cl)c2C)c(OC)c1 | – | inactive: 1.32%
Cc1ccc2c(c1)N(CC(=O)N1CCCCC1)C(=O)CO2 | inconclusive: 2 µM [inhibitor, partial curve, poor fit] | –
CCOC(=O)c1ccc(NC(=O)Cn2nc(SC)c(S(=O)(=O)c3ccc(Cl)cc3)c2N)cc1 | inconclusive: 22.4 µM [inhibitor, single point] | –
c1ccc(CN=C(NCc2ccccc2)NCc2ccccc2)cc1 | inconclusive: 15.8 µM [inhibitor, partial curve, poor fit] | –
CC(C)Cn1c(N2CCN(CC(=O)Nc3ccc(Cl)cc3)CC2)nc2ccccc21 | inconclusive: 1.12 µM [inhibitor, full curve, poor fit] | –
Cc1ccsc1/C=N/NC(=O)c1sccc1C | inconclusive: 35.5 µM [inhibitor, single point] | –
Cc1cccc(C)c1NC(=O)c1ccc2c(c1)N(Cc1cccc(Cl)c1)C(=O)c1ccccc1S2=O (stereo unspecified) | inconclusive: 0.631 µM [inhibitor, full curve, poor fit] | –
COc1ccc(/C=N/Nc2ccc(C(F)(F)F)cc2[N+](=O)[O-])cc1O | inconclusive: 20 µM [inhibitor, single point] | –
CC(C)C(NC(=O)c1ccc(Cl)cc1Cl)C(=O)N1CCC1 (stereo unspecified) | – | inactive: 20.3%
O=C(Nc1ccc(N2CCOCC2)nc1)c1cccs1 | – | inactive: 13.3%
